According to patent publication US20150231199A1, “PEPTIDES AND THEIR USES” (priority 2012, published 2015):
Positions of bridges follow the written chain, without caps; N, C: chain ends. Residues, ends and D or L forms follow the SMILES beside them. Chains are numbered I, II in the order given. *: point of attachment. Palmitoyl = CCCCCCCCCCCCCCCC(=O)*; Myristoyl = CCCCCCCCCCCCCC(=O)*

System: red blood cells (RBCs) of New Zealand white rabbits
Assay type: cell-based, rabbit
Description: Fresh red blood cells (RBCs) of New Zealand white rabbits were used for this experiment. The RBCs obtained were centrifuged at 3000 rpm for 10 min. Supernatant was removed and washed twice with sterile PBS Buffer (20 mM, 100 mM NaCl, pH 7). The RBCs were further diluted to 8% stock solution in PBS. Peptides were dissolved in PBS with desired stock concentrations. When compounds were mixed with RBCs, desired concentration of 4% RBCs was obtained. For C14V2D and C16V2D, they were dissolved in Dimethylformamide ([…]; DMF) with desired stock concentrations. When compounds were mixed with RBCs, desired concentration of 4% RBCs and 0.5% DMF was obtained. DMF concentration of <1% was used as it had negligible hemolytic activity on RBCs. The mixtures were added to 1.5 mL centrifuge tubes and incubated at 37° C. for 1 h. After incubation, the blood was centrifuged at 3000 rpm for 3 min at 4° C. 100 μL of the supernatant was transferred into transparent 96-well plate. The absorbance was measured at 576 nm using a microplate reader (TECAN Infinite 200M Pro). 2% Triton X-100 was used as positive control. PBS was used as negative controls. The amount of hemoglobin released was calculated using the following equation: […]

Compound	Selectivity = HC10/MIC
CCCCCCCCCCCCCC(=O)N[C@@H](CCCNC(=N)N)C(=O)NCC(=O)N[C@@H](CCCNC(=N)N)C(=O)N[C@@H](CCCCN)C(=O)N[C@H](C(=O)N[C@H](C(=O)N[C@@H](CCCNC(=N)N)C(=O)N[C@@H](CCCNC(=N)N)C(=O)NCCCC[C@H](NC(=O)[C@H](CCCNC(=N)N)NC(=O)[C@H](CCCNC(=N)N)NC(=O)[C@@H](NC(=O)[C@@H](NC(=O)[C@H](CCCCN)NC(=O)[C@H](CCCNC(=N)N)NC(=O)CNC(=O)[C@H](CCCNC(=N)N)NC(=O)CCCCCCCCCCCCC)C(C)C)C(C)C)C(=O)N[C@@H](CCCCN)C(=O)O)C(C)C)C(C)C [Peptide C14-V2D, (C13H23—CO—NH—RGRKVVRR)2KK] (I: Myristoyl-RGRKVVRRKK-OH / II: Myristoyl-RGRKVVRR; amide I:9-II:C; N-terminus and C-terminus assumed)	10-81
CCCCCCCCCCCCCCCC(=O)N[C@@H](CCCNC(=N)N)C(=O)NCC(=O)N[C@@H](CCCNC(=N)N)C(=O)N[C@@H](CCCCN)C(=O)N[C@H](C(=O)N[C@H](C(=O)NCCCC[C@H](NC(=O)[C@@H](NC(=O)[C@@H](NC(=O)[C@H](CCCCN)NC(=O)[C@H](CCCNC(=N)N)NC(=O)CNC(=O)[C@H](CCCNC(=N)N)NC(=O)CCCCCCCCCCCCCCC)C(C)C)C(C)C)C(=O)N[C@@H](CCCCN)C(=O)O)C(C)C)C(C)C [Peptide C16-V2D, (C15H31—CO—NH—RGRKVV)2KK] (I: Palmitoyl-RGRKVVKK-OH / II: Palmitoyl-RGRKVV; amide I:7-II:C; C-terminus assumed)	1-2
